Test results: the supplement of paper PMC10849652
The list shows a part of the results.

Amino acid sequences for entries named in this document (tags omitted). A change or cut given only in a name is not applied to a line headed by its entry.
UniProt Q8N3K9: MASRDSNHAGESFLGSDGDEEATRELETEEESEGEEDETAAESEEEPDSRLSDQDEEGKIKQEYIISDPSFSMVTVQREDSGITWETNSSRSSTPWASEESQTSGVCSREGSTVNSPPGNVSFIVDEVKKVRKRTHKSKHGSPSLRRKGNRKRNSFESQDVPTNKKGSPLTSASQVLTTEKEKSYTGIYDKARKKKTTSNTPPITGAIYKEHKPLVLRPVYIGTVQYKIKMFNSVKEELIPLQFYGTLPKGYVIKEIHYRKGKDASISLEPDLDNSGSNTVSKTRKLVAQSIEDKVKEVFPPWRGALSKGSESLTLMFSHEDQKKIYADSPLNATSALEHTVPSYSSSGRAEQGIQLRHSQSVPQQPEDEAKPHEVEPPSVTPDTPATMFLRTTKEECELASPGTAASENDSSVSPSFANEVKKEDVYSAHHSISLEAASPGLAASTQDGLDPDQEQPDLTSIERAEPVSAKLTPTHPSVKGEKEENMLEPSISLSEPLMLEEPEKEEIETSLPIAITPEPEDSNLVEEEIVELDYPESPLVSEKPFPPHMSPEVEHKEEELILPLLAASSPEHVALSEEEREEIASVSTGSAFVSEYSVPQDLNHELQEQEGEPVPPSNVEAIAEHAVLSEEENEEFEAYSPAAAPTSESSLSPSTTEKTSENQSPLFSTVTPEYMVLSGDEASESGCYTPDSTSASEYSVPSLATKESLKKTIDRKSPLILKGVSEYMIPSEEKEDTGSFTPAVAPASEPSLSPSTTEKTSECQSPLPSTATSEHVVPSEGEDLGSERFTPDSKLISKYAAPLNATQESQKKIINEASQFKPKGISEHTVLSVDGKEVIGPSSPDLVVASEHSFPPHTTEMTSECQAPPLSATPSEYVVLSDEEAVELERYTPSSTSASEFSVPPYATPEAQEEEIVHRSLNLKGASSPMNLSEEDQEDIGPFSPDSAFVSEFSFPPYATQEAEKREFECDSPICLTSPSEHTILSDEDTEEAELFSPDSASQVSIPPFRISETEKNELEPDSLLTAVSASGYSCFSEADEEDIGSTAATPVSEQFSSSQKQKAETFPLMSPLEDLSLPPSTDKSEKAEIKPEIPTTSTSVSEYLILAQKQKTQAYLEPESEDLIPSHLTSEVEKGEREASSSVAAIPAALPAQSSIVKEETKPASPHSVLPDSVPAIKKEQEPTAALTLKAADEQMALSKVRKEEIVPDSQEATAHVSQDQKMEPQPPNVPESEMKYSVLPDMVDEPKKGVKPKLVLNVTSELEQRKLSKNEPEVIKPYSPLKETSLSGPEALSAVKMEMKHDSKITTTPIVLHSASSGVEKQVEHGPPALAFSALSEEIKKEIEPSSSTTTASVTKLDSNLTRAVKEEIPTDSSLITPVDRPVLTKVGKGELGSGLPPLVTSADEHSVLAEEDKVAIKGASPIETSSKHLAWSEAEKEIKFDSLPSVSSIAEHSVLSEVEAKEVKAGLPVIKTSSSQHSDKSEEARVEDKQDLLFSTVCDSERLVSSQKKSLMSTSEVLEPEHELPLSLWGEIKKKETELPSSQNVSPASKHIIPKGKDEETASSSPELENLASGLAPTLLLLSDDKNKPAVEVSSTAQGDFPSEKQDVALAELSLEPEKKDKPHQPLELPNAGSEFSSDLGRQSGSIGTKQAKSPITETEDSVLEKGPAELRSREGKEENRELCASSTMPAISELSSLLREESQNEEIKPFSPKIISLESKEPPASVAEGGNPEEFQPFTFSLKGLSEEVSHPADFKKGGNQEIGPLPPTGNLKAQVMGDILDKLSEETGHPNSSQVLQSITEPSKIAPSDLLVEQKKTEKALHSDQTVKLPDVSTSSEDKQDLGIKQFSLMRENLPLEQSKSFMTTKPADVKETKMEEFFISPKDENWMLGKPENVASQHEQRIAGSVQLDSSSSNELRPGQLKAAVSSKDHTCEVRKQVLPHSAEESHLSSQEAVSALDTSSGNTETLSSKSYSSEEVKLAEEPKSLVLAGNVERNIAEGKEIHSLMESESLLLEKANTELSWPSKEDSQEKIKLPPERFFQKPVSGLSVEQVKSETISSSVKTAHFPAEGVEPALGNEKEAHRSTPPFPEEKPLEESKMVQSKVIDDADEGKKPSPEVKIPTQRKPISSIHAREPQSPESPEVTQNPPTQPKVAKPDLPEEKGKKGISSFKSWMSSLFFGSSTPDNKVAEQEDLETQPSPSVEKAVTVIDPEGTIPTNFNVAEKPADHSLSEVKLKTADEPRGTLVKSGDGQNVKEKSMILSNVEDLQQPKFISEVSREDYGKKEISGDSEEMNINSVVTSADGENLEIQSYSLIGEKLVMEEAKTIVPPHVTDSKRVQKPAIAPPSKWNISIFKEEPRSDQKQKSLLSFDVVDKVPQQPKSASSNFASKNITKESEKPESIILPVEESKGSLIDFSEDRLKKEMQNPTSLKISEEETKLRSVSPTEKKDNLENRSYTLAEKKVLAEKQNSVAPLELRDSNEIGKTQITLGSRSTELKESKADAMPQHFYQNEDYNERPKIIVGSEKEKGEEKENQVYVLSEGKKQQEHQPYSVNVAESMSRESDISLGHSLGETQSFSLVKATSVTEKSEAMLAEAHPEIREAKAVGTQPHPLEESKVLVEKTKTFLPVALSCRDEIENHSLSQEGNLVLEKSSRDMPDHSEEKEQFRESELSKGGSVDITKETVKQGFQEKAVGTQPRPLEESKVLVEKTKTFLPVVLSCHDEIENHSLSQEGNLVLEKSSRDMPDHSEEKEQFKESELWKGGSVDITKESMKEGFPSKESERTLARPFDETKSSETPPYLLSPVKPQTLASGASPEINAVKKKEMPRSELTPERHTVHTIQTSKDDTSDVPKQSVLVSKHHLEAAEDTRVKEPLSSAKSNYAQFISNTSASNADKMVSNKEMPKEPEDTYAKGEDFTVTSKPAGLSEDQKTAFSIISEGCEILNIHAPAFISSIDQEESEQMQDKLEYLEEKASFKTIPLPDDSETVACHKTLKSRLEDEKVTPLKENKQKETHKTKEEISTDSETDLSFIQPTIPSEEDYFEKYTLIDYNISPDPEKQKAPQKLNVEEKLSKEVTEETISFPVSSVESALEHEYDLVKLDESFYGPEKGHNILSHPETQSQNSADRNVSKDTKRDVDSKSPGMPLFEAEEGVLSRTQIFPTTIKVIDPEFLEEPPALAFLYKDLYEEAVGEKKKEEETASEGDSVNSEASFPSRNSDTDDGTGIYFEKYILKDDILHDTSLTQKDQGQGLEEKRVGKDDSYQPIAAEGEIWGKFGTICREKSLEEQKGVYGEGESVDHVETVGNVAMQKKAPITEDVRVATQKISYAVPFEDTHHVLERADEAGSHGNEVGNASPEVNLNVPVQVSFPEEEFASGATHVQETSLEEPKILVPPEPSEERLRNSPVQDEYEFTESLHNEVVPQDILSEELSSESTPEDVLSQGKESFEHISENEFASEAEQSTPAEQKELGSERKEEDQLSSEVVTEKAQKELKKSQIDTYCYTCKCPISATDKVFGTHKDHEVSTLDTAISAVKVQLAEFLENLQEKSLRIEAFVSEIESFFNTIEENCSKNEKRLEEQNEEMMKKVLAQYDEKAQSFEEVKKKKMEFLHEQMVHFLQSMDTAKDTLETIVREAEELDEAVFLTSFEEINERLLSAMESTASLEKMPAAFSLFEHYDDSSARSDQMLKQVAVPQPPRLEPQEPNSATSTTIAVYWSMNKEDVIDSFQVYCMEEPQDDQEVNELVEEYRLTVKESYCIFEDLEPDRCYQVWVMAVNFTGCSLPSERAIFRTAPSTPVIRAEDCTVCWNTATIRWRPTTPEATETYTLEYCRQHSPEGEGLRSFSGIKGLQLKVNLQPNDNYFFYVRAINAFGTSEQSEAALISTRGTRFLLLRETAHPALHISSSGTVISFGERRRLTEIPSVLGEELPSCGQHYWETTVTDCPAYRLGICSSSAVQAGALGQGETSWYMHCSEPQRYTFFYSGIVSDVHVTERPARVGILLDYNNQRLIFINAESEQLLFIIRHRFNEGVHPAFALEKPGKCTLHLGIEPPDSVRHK
UniProt Q9NWW5: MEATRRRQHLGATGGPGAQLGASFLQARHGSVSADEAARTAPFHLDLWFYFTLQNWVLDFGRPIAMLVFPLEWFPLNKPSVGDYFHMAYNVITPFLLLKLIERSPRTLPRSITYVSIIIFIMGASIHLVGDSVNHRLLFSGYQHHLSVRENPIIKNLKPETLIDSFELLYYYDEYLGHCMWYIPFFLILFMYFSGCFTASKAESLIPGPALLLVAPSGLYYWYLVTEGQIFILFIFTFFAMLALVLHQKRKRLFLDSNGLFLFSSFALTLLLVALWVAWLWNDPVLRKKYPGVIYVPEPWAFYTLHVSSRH
UniProt Q9P2E5: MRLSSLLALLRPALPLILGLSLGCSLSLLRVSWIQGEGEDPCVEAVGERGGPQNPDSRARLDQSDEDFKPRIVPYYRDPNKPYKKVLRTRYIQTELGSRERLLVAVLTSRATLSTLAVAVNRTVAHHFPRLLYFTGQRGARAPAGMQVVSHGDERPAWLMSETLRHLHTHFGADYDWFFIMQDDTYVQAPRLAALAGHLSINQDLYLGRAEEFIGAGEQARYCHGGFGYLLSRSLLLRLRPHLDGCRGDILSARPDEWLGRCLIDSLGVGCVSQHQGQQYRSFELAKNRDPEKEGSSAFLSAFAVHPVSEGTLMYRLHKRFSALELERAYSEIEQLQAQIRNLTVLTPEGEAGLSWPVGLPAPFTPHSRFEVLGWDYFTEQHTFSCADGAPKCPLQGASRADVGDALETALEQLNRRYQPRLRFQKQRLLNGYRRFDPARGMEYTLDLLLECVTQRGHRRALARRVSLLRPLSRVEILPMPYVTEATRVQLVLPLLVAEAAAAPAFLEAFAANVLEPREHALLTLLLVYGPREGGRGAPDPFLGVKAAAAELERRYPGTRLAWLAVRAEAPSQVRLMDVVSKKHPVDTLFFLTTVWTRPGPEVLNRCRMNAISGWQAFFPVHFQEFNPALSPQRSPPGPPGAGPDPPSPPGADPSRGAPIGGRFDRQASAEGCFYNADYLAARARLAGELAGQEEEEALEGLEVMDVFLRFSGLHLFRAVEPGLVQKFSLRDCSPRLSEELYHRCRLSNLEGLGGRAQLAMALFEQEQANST
UniProt P08123: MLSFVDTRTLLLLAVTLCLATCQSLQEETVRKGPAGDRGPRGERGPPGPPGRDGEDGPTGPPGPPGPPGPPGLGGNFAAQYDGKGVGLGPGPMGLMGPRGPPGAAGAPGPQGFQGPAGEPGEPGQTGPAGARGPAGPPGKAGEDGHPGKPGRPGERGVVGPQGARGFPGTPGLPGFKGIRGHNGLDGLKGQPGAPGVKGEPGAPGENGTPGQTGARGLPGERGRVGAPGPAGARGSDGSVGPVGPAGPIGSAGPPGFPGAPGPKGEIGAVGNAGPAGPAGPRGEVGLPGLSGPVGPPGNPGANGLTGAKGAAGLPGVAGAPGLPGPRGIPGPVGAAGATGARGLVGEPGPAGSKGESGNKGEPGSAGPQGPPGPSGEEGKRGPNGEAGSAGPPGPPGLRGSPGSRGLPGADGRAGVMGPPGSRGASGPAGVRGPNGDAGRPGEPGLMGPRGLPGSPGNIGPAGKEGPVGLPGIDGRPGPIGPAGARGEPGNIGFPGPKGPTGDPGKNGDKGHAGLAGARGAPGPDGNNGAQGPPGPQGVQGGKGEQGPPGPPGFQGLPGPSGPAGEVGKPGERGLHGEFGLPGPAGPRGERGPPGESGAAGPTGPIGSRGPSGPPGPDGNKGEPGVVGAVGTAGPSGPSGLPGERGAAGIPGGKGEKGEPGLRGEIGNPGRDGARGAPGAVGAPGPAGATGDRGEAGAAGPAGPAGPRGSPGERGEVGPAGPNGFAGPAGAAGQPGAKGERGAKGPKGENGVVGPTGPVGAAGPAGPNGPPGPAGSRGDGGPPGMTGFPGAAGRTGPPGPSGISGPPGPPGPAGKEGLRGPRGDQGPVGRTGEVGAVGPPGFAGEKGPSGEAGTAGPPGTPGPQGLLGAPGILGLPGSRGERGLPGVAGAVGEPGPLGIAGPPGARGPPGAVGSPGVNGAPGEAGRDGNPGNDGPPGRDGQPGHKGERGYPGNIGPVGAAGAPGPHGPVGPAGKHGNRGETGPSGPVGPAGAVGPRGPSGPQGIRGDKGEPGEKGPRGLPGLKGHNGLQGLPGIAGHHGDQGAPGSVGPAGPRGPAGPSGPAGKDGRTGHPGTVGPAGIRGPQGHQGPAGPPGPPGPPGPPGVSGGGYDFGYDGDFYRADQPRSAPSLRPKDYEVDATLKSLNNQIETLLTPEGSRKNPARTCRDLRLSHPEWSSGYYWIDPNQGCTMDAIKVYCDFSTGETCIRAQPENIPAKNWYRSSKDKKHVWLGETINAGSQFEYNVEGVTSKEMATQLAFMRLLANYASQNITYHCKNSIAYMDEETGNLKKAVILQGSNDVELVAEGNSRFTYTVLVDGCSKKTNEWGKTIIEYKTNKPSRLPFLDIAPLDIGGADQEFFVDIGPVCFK

How the values were obtained:
Test in all cases: log2 fold change, soluble protein after heating vs DMSO (PISA); higher = thermal stabilisation; K562 cells, 10 uM, 30 min; active = over 0.2 and 3.5 SD of the protein, either way, in both replicates (recomputed)
[1] = compound: CC1=C(C=C(C=C1)NC(=O)C2=CC(=CC=C2)C(C)(C)C#N)NC3=CC4=C(C=C3)N=CN(C4=O)C
Summary of the method: (§1)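 Values are thermal stability changes relative to control samples and are taken from duplicates. They are stated as log2 fold changes. Before quantification by TMTpro 16plex LC-MS/MS with equalised channel sums, K562 cells at 2×10^6 cells/mL were treated with 10 μM compound for 30 min, heated in aliquots for 3 min across 48°C-58°C, pooled, extracted in PBS with 0.5% NP-40 at 4°C, and centrifuged at 21,000xg for 90 min to give the soluble supernatant.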

[2] = compound: CC1=CC=C(C=C1)SC2=C3C=C(SC3=CN=C2)C(=O)N
Summary of the method: as §1

[3] = compound: CC1=NC(=CC=C1)C2=C(N=C(N2)C(C)(C)C)C3=CC4=NC=CN=C4C=C3
Summary of the method: as §1

Nexturastat A = compound: CCCCN(Cc1ccc(C(=O)NO)cc1)C(=O)Nc1ccccc1 [Nexturastat A]
Summary of the method: as §1

vemurafenib = compound: CCCS(=O)(=O)Nc1ccc(F)c(C(=O)c2c[nH]c3ncc(-c4ccc(Cl)cc4)cc23)c1F [vemurafenib]
Summary of the method: as §1

[4] = compound: CCCS(=O)(=O)Nc1ccc(F)c(C(=O)c2c[nH]c3ncc(Cl)cc23)c1F
Summary of the method: as §1

[5] = compound: CCCc1cc(C)[nH]c(=O)c1CNC(=O)c1cc(-c2ccnc(N3CCN(C)CC3)c2)cc2c1cnn2C(C)C
Summary of the method: as §1

givinostat = compound: CCN(CC)Cc1ccc2cc(COC(=O)Nc3ccc(C(=O)NO)cc3)ccc2c1 [givinostat]
Summary of the method: as §1

barasertib = compound: CCN(CCCOc1ccc2c(Nc3cc(CC(=O)Nc4cccc(F)c4)[nH]n3)ncnc2c1)CCOP(=O)(O)O [barasertib]
Summary of the method: as §1

[6] = compound: CC[C@@H]1C(=O)N(C)c2cnc(Nc3ccc(C(=O)NC4CCN(C)CC4)cc3OC)nc2N1C1CCCC1
Summary of the method: as §1

volasertib = compound: CC[C@@H]1C(=O)N(C)c2cnc(Nc3ccc(C(=O)N[C@H]4CC[C@H](N5CCN(CC6CC6)CC5)CC4)cc3OC)nc2N1C(C)C [volasertib]
Summary of the method: as §1

[7] = compound: CC[C@H](C)N1C=C(C2=C(C=C(C=C21)C3=CN=C(C=C3)N4CCNCC4)C(=O)NCC5=C(C=C(NC5=O)C)C)C
Summary of the method: as §1

epoxomicin = compound: CC[C@H](C)[C@@H](C(=O)N[C@@H]([C@@H](C)O)C(=O)N[C@@H](CC(C)C)C(=O)[C@]1(CO1)C)NC(=O)[C@H]([C@@H](C)CC)N(C)C(=O)C [epoxomicin]
Summary of the method: as §1

[8] = compound: CCn1c(C(=O)N(C2CC2)C2CC2)cc2c3c(ncn3C)c(Nc3cc(C)n(C)n3)nc21
Summary of the method: as §1

[9] = compound: CCn1cc(-c2ccnc3[nH]c(-c4cccc(CN(C)C)c4)cc23)c(-c2ccc(NC(=O)N(C)C)cc2)n1
Summary of the method: as §1

[10] = compound: CN(C)CC(=O)Nc1ccc2[nH]c(=O)c3ccccc3c2c1
Summary of the method: as §1

rosiglitazone = compound: CN(CCOC1=CC=C(C=C1)C[C@H]2C(=O)NC(=O)S2)C3=CC=CC=N3 (racemic) [rosiglitazone]
Summary of the method: as §1

[11] = compound: CN1C2=C(C3=C1C(=O)N(N=C3)CC4=CC(=CC=C4)N)SC(=C2)S(=O)C
Summary of the method: as §1

[12] = compound: CN1CCC(CNc2ccc3ncc(-c4cccc(OC(F)(F)F)c4)n3n2)CC1
Summary of the method: as §1

[13] = compound: CC1=C(C=C(C=C1)NC(=O)C2=CC(=CC=C2)N(C)C)NC(=O)C3=CC=C(C=C3)O
Summary of the method: as §1

Measured: log2 fold change

CMPK2 (UniProt Q5EBM0)
inactive: [1] 0.062 | [2] -0.013 | [3] -0.014 | Nexturastat A 0.022 | vemurafenib -0.043 | [4] -0.022 | [5] 0.017 | givinostat 0.036 | barasertib 0.028 | [6] 0.139 | volasertib 0.117 | [7] -0.015 | epoxomicin 0.037 | [8] -0.039 | [9] -0.062 | [10] -0.021 | rosiglitazone 0.038 | [11] -0.015 | [12] -0.057

CMYA5 (UniProt Q8N3K9)
inactive: [1] -0.343 | [13] -0.014 | [5] -0.005 | barasertib 0.077 | [7] -0.051 | rosiglitazone -0.026

CNIH4 (UniProt Q9P003)
inactive: [1] 0.076 | [13] -0.049 | [2] 0.147 | [3] -0.102 | vemurafenib -0.051 | [4] 0.223 | [5] -0.082 | givinostat 0.1 | barasertib -0.054 | [6] 0.028 | volasertib -0.107 | [7] 0.033 | [8] 0 | [10] -0.033 | rosiglitazone -0.107 | [11] -0.067

CHST12 (UniProt Q9NRB3)
inactive: [1] -0.03 | [13] -0.073 | [3] 0.05 | Nexturastat A 0.347 | vemurafenib -0.006 | givinostat 0 | barasertib -0.015 | epoxomicin 0.074 | [8] -0.255 | [9] 0.009 | [10] -0.073 | rosiglitazone 0.062 | [11] -0.03 | [12] 0.023

CKAP4 (UniProt Q07065)
inactive: [1] 0.025 | [13] 0.056 | [2] -0.013 | vemurafenib -0.024 | [4] -0.009 | [5] -0.089 | [6] -0.144 | volasertib -0.05 | [7] 0.057 | [10] 0.02 | [11] 0.07

CNN1 (UniProt P51911)
inactive: [1] -0.068 | [2] -0.1 | Nexturastat A -0.029 | vemurafenib 0.056 | [4] -0.042 | [5] -0.012 | [6] -0.049 | volasertib -0.066 | [7] -0.066 | epoxomicin -0.015 | [9] -0.403 | [10] -0.007 | [12] -0.192

CNBP (UniProt P62633)
inactive: [1] 0.057 | [2] -0.074 | [4] -0.045 | [5] 0.03 | givinostat 0.1 | barasertib -0.075 | [6] 0.021 | volasertib 0.104 | [7] -0.055 | [8] 0.033 | [9] 0.044 | rosiglitazone -0.075 | [11] -0.013 | [12] 0.17

CHPT1 (UniProt Q8WUD6)
inactive: [1] 0.088 | [13] 0.055 | [2] 0.132 | Nexturastat A 0.114 | [4] 0.051 | [5] 0.047 | [6] -0.324 | volasertib -0.228 | [7] 0.119 | epoxomicin -0.176 | [9] -0.042 | [11] 0.047
active: [12] -0.79

CNPY4 (UniProt Q8N129)
inactive: [1] 0.002 | [13] 0.002 | [2] -0.028 | vemurafenib 0.017 | [4] -0.052 | [5] -0.057 | givinostat 0.052 | barasertib 0.026 | volasertib 0.05 | [7] 0.066 | [8] 0.037 | [9] -0.045 | [10] 0.003 | rosiglitazone 0.05 | [11] 0.016 | [12] -0.066

CNOT11 (UniProt Q9UKZ1)
inactive: [1] 0.063 | [13] -0.009 | [3] -0.021 | Nexturastat A -0.025 | vemurafenib 0.002 | [5] -0.021 | givinostat -0.009 | barasertib 0.078 | [6] -0.133 | [7] 0.018 | epoxomicin -0.153 | [8] -0.045 | [10] -0.072 | rosiglitazone -0.034 | [11] 0.115

2 records drawn at random from those above:
CNN1 (UniProt P51911)
inactive: [1] -0.068 | [2] -0.1 | Nexturastat A -0.029 | vemurafenib 0.056 | [4] -0.042 | [5] -0.012 | [6] -0.049 | volasertib -0.066 | [7] -0.066 | epoxomicin -0.015 | [9] -0.403 | [10] -0.007 | [12] -0.192

CHPT1 (UniProt Q8WUD6)
inactive: [1] 0.088 | [13] 0.055 | [2] 0.132 | Nexturastat A 0.114 | [4] 0.051 | [5] 0.047 | [6] -0.324 | volasertib -0.228 | [7] 0.119 | epoxomicin -0.176 | [9] -0.042 | [11] 0.047
active: [12] -0.79

Additional entries follow:

CNOT6 (UniProt Q9ULM6)
inactive: [1] -0.075 | [13] -0.067 | vemurafenib 0.04 | [5] 0.011 | givinostat -0.018 | barasertib -0.012 | [6] 0.039 | [7] 0.024 | [8] -0.377 | [9] -0.173 | [10] -0.023 | rosiglitazone -0.121 | [11] 0.058 | [12] -0.008

CLSTN1 (UniProt O94985)
inactive: [1] -0.197 | [13] 0.03 | [2] -0.128 | [3] -0.19 | [4] -0.239 | [5] 0.016 | barasertib 0.18 | [6] 0.241 | volasertib 0.125 | [9] 0.244 | rosiglitazone 0.069 | [11] -0.14 | [12] -0.273

COL18A1 (UniProt P39060)
inactive: [1] -0.108 | [13] 0.039 | [2] 0.042 | Nexturastat A 0.228 | vemurafenib 0.208 | [4] -0.062 | [5] -0.058 | givinostat -0.037 | barasertib -0.082 | [6] 0.036 | volasertib -0.086 | [7] 0.08 | epoxomicin -0.106 | [8] 0.007 | [9] 0.108 | [10] -0.114 | rosiglitazone -0.036 | [11] 0.154 | [12] 0.198

CLN6 (UniProt Q9NWW5)
inactive: [1] 0.038 | [13] 0.014 | [2] -0.014 | Nexturastat A 0.045 | vemurafenib 0.199 | [4] 0.071 | [5] -0.001 | barasertib 0.061 | [6] -0.078 | volasertib 0.106 | [7] -0.034 | epoxomicin 0.062 | [10] 0.007 | rosiglitazone 0.006

CLIC6 (UniProt Q96NY7)
inactive: [1] 0.045 | [13] 0.028 | [3] 0.029 | Nexturastat A -0.227 | vemurafenib -0.11 | [5] -0.111 | barasertib 0.027 | [6] -0.012 | [7] -0.053 | epoxomicin -0.041 | [10] 0.073 | rosiglitazone 0.034 | [11] -0.229

CHPF2 (UniProt Q9P2E5)
inactive: [1] -0.024 | [13] 0.123 | [2] -0.053 | Nexturastat A -0.096 | vemurafenib 0.116 | [4] -0.037 | [5] 0.009 | givinostat -0.118 | barasertib -0.077 | volasertib -0.019 | [7] -0.011 | epoxomicin -0.021 | [8] -0.069 | [9] 0.065 | [10] 0.028 | rosiglitazone 0.053 | [11] 0.176 | [12] 0.123

COL1A2 (UniProt P08123)
inactive: [1] -0.026 | [13] 0.222 | [3] 0 | Nexturastat A 0.091 | vemurafenib 0.059 | givinostat -0.073 | barasertib 0.162 | [6] -0.096 | [7] -0.122 | epoxomicin -0.525 | [8] 0.036 | [9] -0.068 | [10] 0.033 | rosiglitazone -0.091 | [11] 0.395 | [12] 0.031

CLN5 (UniProt O75503)
inactive: [1] 0.031 | [2] 0.058 | [3] 0.068 | Nexturastat A 0.012 | [4] 0.104 | [5] -0.54 | givinostat -0.17 | barasertib 0.06 | [7] -0.001 | epoxomicin 0.014 | [9] -0.183 | [11] 0.139
active: volasertib -1.25 | [12] -0.834

CHST2 (UniProt Q9Y4C5)
inactive: [1] -0.024 | [2] 0.055 | [3] -0.034 | Nexturastat A 0.023 | [4] -0.118 | [5] 0.031 | givinostat 0.006 | barasertib -0.03 | volasertib -0.033 | [7] -0.086 | epoxomicin 0.134 | [8] -0.045 | rosiglitazone 0.068 | [11] -0.115
